PubChem BioAssay AID1259296, Sanger Institute – 2017

Test: 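Kinase knock-downs that boost killing by anchor drugs in colorectal cancer cells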 (follow-up of hits)
System: CAR1 human colorectal cancer cells
Reagents: single siRNA against human genes
Treatment: anchor drugs BYL719 at 1 µM, cetuximab at 5 µg/ml or trametinib at 10 nM, or DMSO vehicle, added a day after transfection
Detection: 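Viability of cells versus control pool 2 (non-targeting) averaged across replicates; for every anchor drug, synergy score comparing joint effect with drug or siRNA alone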
Reading the numbers: synergy with BYL719 and synergy with cetuximab and synergy with trametinib: higher = stronger synergy between knock-down and drug; viability, siRNA plus trametinib and viability, siRNA alone (DMSO): higher = more viable cells
Call rule: 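Active when synergy exceeds 0.10 with BYL719, cetuximab or trametinib, any one sufficing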
In all, the deposit lists 160 reagents; this is a part drawn at random. 45 of them (28%) were called active. 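Calls are per single siRNA duplex in CAR1 cells only; how the synergy score is calculated is not stated.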 Entries without a mark were called inactive. The numbers tell different reagents against one gene apart. Viability is capped at 1. The record does not give: the amount of reagent, the time to read-out.

| gene | siRNA no. | synergy with BYL719 | synergy with cetuximab | synergy with trametinib | viability, siRNA plus trametinib (fraction of control) | viability, siRNA alone (DMSO) (fraction of control) |
| --- | --- | --- | --- | --- | --- | --- |
| CSNK2A2 | 1 | -0.0907 | -0.0722 | 0.0331 | 0.937 | 0.97 |
| CSNK2A2 | 2 | 0.0581 (active) | -0.0279 | 0.112 | 0.457 | 0.569 |
| CSNK2A2 | 3 | 0.0287 | -0.0218 | -0.0156 | 0.602 | 0.586 |
| CSNK2A2 | 4 | 0.019 (active) | 0.00284 | 0.137 | 0.329 | 0.467 |
| ACVR1 | 1 | -0.0787 | 0.0228 | 0.0433 | 0.934 | 0.977 |
| ACVR1 | 2 | -0.068 | -0.0924 | -0.017 | 0.895 | 0.878 |
| ACVR1 | 3 | -0.0653 | -0.0439 | 0 | 1 | 1 |
| ACVR1 | 4 | 0.0463 | -0.093 | 0.0974 | 0.768 | 0.865 |
| CDKN2D | 1 | -0.118 | 0.0564 | 0.0687 | 0.722 | 0.791 |
| CDKN2D | 2 | -0.0169 (active) | -0.101 | 0.161 | 0.693 | 0.854 |
| CDKN2D | 3 | -0.185 | -0.161 | -0.113 | 0.99 | 0.877 |
| CDKN2D | 4 | 0.105 (active) | -0.00494 | 0.147 | 0.792 | 0.939 |

Next part; the last 2 above are carried over.
| gene | siRNA no. | synergy with BYL719 | synergy with cetuximab | synergy with trametinib | viability, siRNA plus trametinib (fraction of control) | viability, siRNA alone (DMSO) (fraction of control) |
| --- | --- | --- | --- | --- | --- | --- |
| CDKN2D | 3 | -0.185 | -0.161 | -0.113 | 0.99 | 0.877 |
| CDKN2D | 4 | 0.105 (active) | -0.00494 | 0.147 | 0.792 | 0.939 |
| KCNH8 | 1 | -0.0157 | -0.065 | -0.0444 | 0.952 | 0.908 |
| KCNH8 | 2 | 0.0815 (active) | -0.074 | 0.146 | 0.602 | 0.748 |
| KCNH8 | 3 | -0.0712 | -0.0686 | -0.0605 | 0.936 | 0.876 |
| KCNH8 | 4 | -0.0986 | -0.139 | -0.108 | 0.841 | 0.733 |
| HUNK | 1 | 0.0676 | 0.0125 | 0.0179 | 0.805 | 0.822 |
| HUNK | 2 | 0.114 (active) | 0.144 | 0.139 | 0.617 | 0.756 |
| HUNK | 3 | 0.0786 | -0.0917 | 0.0327 | 0.815 | 0.848 |
| HUNK | 4 | 0.0418 | -0.101 | -0.0565 | 0.971 | 0.915 |
